Binding data for 1 substance are collected here from publication PMC4077619.

Chains of the proteins cited; added tags and fusions are not shown. Lines headed by an entry give the natural chain unless they say otherwise; changes in a name come on top.
UniProt O81826: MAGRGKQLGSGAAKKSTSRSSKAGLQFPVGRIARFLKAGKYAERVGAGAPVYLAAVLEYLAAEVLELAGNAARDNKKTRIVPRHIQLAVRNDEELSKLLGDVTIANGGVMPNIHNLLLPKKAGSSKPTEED

No constants are given. Whether binding was seen depends on the method and setting. Binding seen in cells or lysates may run through a third protein. Where a sequence is shown, tags or fusion partners need not be part of it.

The assay deals with T1, CRLuc-SLR1 (rice SLENDER RICE 1 fused to the C-terminal fragment of Renilla luciferase) (rice) (UniProt Q7G7J6).
T1 sequence: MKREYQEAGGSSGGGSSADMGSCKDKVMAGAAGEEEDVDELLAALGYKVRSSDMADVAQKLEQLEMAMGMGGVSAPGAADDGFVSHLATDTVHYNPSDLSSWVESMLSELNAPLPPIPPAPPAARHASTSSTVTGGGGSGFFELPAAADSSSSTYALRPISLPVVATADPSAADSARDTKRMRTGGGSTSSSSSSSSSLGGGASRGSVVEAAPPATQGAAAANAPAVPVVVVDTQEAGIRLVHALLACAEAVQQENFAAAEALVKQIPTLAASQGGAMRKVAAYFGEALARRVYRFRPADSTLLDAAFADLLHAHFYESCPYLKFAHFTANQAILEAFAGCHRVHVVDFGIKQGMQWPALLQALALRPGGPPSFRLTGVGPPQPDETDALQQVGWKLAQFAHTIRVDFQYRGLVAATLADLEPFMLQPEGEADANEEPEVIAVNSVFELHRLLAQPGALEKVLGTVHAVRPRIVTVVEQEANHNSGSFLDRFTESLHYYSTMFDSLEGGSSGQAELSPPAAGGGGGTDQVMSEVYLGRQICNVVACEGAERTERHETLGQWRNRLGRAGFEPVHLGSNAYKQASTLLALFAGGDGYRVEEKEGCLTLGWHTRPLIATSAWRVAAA
Description: split reporter; split Renilla luciferase complementation in living rice protoplasts, 96-well plate, W5 buffer, ViviRen substrate, RLU read 16 h after transformation; no hormone added (before the hormone or with W5 buffer only); H2A-H2B also tested with GA3 (Figure S1), RLU not increased.

As for “NRLuc-H2A (Arabidopsis HISTONE 2A fused to the N-terminal fragment of Renilla luciferase) (from UniProt O81826 1-131)”, the binding entry was “no binding”.
